From PMC4423205

Protein sequences, listed by entry. Tags and fused reporters are not part of them. Residues count along the entry.
UniProt P13500, 24-99: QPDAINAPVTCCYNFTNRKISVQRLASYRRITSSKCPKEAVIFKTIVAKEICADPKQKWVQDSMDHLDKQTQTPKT
UniProt P13500, 24-99 V45K: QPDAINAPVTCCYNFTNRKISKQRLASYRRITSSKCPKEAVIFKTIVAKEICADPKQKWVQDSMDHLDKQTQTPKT
UniProt P13500, 24-99 H89Y: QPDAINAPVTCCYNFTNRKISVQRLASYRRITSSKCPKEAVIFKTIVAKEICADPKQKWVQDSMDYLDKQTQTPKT
UniProt P13500, 24-99 R41K: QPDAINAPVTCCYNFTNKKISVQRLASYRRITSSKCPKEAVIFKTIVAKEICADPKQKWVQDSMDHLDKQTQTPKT
UniProt P80098, 24-99: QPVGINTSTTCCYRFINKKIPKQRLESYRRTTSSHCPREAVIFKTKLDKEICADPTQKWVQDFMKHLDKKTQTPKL

Tests used:
[1] = target: CCL2 (MCP-1), wild type (Homo sapiens) (UniProt P13500); experiment: native PAGE and dynamic light scattering; conditions: 1 mM Mg2+, 1 mM Ca2+; all L-ribonucleotides (L-RNA, mirror image); recombinant protein; synthetic backbone
[2] = target: CCL7 (MCP-3) (Homo sapiens) (UniProt P80098); experiment: SPR; conditions: all L-ribonucleotides (L-RNA, mirror image); SPR (Biacore 2000), chemokine immobilized on CM4/CM5, physiological running buffer, 37 C; complex formation in 20 mM HEPES pH 7.4, 100 mM NaCl, 5 mM KCl, 1 mM MgCl2; commercial protein; synthetic backbone
[3] = target: CCL2 (MCP-1), R&D Systems (Homo sapiens) (UniProt P13500); experiment: SPR; conditions: all L-ribonucleotides (L-RNA, mirror image), SPR (Biacore 2000), complex formation in 20 mM HEPES pH 7.4, 100 mM NaCl, 5 mM KCl, 1 mM MgCl2, commercial protein, synthetic backbone
[4] = target: CCL2 V22K V45K (Homo sapiens) (UniProt P13500); experiment: SPR; conditions: Kd and rates similar to wild type; all L-ribonucleotides (L-RNA, mirror image); SPR (Biacore 2000), chemokine immobilized on CM4/CM5, physiological running buffer, 37 C; complex formation in 20 mM HEPES pH 7.4, 100 mM NaCl, 5 mM KCl, 1 mM MgCl2; recombinant protein; synthetic backbone
[5] = target: CCL2 H66Y H89Y (Homo sapiens) (UniProt P13500); experiment: SPR; conditions: Kd and rates similar to wild type; all L-ribonucleotides (L-RNA, mirror image); SPR (Biacore 2000), chemokine immobilized on CM4/CM5, physiological running buffer, 37 C; complex formation in 20 mM HEPES pH 7.4, 100 mM NaCl, 5 mM KCl, 1 mM MgCl2; recombinant protein; synthetic backbone
[6] = target: CCL2 R18K R41K (Homo sapiens) (UniProt P13500); experiment: SPR; conditions: Kd not worse than wild type, on- and off-rate about 3-fold slower; all L-ribonucleotides (L-RNA, mirror image); SPR (Biacore 2000), chemokine immobilized on CM4/CM5, physiological running buffer, 37 C; complex formation in 20 mM HEPES pH 7.4, 100 mM NaCl, 5 mM KCl, 1 mM MgCl2; recombinant protein; synthetic backbone
[7] = target: CCL2 (MCP-1), wild type (Homo sapiens) (UniProt P13500); experiment: crystal structure; conditions: 2.05 A, Sr2+, K+, Na+; all L-ribonucleotides; 2'-deoxy-2'-methylseleno-uridine at position 31; recombinant protein; synthetic backbone

Sequence	binding result [1]	binding result [2]	binding result ([3]; Ca2+ reduced or omitted (strong Ca2+ dependence), chemokine immobilized on CM4/CM5, physiological running buffer, 37 C)	binding result ([3]; K+ varied, no effect on kinetics, chemokine immobilized on CM4/CM5, physiological running buffer, 37 C)	binding result ([3]; Mg2+ varied, minor effect, chemokine immobilized on CM4/CM5, physiological running buffer …)	binding result ([3]; Na+ above physiological level, chemokine immobilized on CM4/CM5, physiological running buffer, 37 C)	binding result [4]	binding result [5]	binding result [6]	binding result [7]
GCACGUCCCUCACCGGUGCAAGUGAAGCCGUGGCUCUGCG [NOX-E36 L-aptamer (Spiegelmer, without PEG)]	binds	no binding	binds more weakly	binds	binds	binds more weakly	binds	binds	binds	–
GCACGUCCCUCACCGGUGCAAGUGAAGCCGUGGCUCUGCG [NOX-E36 L-aptamer, U31 2'-methylseleno]	–	–	–	–	–	–	–	–	–	binds

For some of these results: Negatives hold for the conditions tested. For some of these results: Construct, isoform or probe ends are uncertain for at least one entry. For some of these results: Weaker means in comparison with the reference protein, sequence or condition of that experiment. For some of these results: At least one verdict rests on a figure or table, not on a statement of the authors.
